Measured values as given in the supplement of paper PMC7666118.
The other results are listed elsewhere or left out.

Chains of the proteins cited; added tags and fusions are not shown. Lines headed by an entry give the natural chain unless they say otherwise; changes in a name come on top.
UniProt Q9UBW7: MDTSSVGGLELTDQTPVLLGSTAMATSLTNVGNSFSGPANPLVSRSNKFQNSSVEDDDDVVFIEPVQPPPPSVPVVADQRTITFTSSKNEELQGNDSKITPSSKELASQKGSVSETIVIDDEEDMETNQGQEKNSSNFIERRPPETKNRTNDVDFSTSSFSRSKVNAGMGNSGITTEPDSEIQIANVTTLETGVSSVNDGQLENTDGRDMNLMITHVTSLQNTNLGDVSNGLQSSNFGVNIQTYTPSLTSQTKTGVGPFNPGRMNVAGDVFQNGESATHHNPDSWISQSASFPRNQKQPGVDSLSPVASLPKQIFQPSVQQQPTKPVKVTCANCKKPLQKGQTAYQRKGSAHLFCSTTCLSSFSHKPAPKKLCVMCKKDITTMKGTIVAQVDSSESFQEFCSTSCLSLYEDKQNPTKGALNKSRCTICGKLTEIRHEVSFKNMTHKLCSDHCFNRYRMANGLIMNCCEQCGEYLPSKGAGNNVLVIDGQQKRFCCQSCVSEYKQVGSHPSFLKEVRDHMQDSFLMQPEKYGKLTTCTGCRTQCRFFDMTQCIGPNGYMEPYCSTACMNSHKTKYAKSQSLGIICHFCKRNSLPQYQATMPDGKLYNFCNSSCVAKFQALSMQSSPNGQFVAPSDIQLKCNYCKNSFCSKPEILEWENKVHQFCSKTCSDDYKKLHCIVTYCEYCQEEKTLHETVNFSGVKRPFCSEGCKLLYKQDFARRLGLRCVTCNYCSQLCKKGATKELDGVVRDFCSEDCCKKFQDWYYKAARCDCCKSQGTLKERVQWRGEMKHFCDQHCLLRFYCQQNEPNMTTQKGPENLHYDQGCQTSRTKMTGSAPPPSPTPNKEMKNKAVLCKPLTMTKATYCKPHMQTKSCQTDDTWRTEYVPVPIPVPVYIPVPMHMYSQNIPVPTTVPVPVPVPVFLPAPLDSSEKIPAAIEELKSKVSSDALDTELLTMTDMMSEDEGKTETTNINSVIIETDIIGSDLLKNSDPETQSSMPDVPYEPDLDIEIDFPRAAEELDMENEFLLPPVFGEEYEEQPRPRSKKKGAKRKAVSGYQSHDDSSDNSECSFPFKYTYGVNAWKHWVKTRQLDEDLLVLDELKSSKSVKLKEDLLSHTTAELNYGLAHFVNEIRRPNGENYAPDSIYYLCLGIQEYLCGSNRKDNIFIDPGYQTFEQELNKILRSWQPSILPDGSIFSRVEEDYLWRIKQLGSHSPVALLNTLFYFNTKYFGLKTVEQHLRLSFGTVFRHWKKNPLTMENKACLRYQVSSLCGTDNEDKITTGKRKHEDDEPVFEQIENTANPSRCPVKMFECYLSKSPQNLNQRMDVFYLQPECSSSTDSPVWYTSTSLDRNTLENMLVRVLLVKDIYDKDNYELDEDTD
UniProt Q8N680: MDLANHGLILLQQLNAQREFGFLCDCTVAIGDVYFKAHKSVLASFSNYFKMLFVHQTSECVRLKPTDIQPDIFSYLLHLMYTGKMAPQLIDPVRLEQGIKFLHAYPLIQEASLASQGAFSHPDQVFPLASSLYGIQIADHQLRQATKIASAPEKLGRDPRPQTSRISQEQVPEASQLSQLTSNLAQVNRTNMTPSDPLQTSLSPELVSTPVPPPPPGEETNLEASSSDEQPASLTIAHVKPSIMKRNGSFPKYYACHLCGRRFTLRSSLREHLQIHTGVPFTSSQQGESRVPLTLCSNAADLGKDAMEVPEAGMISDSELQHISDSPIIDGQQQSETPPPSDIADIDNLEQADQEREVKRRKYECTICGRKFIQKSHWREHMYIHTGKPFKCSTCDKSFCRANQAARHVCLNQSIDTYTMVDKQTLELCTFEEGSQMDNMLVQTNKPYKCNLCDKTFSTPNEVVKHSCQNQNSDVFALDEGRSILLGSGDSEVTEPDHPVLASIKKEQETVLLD
UniProt Q9NRM2: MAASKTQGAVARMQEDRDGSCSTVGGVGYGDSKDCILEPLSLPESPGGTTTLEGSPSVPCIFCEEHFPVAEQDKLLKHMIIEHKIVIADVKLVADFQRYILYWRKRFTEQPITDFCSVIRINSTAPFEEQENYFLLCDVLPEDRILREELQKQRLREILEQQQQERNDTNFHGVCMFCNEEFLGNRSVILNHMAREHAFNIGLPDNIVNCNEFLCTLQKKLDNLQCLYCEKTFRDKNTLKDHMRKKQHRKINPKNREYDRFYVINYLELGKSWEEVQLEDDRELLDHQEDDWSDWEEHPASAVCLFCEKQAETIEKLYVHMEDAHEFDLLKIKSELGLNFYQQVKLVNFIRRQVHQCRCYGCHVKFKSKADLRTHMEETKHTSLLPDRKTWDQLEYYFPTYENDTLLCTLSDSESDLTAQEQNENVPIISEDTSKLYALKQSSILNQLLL
UniProt Q9C0B5: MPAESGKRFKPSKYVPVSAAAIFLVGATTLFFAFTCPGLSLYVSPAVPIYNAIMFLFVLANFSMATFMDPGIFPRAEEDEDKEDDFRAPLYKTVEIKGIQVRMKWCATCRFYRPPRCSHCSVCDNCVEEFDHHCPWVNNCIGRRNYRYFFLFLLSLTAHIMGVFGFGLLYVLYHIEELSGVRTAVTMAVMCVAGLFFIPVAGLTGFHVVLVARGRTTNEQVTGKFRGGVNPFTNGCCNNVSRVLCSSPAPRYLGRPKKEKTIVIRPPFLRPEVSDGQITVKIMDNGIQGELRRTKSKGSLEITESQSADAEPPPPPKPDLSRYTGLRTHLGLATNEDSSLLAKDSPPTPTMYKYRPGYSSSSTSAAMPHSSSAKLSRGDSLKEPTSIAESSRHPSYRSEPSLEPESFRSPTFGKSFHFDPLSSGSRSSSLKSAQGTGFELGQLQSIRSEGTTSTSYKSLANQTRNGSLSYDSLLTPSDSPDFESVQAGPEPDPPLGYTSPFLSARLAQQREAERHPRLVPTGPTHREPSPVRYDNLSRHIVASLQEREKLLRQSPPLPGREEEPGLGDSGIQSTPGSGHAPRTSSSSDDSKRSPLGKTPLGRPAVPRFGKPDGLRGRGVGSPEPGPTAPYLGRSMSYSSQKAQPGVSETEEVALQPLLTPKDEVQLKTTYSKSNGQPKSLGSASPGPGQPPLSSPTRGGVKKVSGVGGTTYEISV
UniProt Q14191, whole entry: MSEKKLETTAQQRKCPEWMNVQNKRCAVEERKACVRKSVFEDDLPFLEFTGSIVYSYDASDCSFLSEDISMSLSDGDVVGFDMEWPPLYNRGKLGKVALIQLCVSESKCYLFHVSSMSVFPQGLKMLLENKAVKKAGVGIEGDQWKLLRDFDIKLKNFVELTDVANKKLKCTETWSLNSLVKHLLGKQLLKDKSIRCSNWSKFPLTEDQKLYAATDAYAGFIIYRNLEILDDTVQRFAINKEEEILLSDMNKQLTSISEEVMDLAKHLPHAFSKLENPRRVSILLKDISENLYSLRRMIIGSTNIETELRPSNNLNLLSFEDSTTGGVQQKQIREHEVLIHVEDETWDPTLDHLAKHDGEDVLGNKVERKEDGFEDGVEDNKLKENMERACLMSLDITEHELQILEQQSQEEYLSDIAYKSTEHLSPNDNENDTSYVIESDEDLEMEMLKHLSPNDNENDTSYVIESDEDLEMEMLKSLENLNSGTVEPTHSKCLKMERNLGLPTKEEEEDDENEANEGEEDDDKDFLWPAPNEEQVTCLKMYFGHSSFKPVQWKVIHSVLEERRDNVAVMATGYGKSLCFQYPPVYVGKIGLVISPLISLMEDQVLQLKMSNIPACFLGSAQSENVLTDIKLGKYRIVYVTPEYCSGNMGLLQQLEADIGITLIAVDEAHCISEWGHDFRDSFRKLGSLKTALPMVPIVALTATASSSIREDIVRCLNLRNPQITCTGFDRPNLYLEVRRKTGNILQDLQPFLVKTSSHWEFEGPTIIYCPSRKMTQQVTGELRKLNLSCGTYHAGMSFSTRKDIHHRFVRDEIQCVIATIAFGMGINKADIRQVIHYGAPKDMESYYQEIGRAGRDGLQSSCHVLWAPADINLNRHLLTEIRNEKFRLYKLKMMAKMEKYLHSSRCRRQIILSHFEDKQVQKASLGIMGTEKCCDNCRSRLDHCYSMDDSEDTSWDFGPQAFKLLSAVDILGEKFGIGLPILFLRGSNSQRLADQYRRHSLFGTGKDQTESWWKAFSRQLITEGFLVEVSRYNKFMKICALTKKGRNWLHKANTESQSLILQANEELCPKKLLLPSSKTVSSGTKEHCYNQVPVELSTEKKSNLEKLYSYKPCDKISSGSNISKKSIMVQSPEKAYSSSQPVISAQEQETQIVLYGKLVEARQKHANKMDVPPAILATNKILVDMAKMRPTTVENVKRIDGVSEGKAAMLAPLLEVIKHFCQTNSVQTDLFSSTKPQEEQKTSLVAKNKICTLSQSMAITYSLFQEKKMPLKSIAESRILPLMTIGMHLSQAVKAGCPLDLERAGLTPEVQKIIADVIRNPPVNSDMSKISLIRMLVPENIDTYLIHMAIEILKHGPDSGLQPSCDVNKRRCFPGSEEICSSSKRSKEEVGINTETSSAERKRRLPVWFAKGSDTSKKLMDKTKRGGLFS
UniProt Q7Z739: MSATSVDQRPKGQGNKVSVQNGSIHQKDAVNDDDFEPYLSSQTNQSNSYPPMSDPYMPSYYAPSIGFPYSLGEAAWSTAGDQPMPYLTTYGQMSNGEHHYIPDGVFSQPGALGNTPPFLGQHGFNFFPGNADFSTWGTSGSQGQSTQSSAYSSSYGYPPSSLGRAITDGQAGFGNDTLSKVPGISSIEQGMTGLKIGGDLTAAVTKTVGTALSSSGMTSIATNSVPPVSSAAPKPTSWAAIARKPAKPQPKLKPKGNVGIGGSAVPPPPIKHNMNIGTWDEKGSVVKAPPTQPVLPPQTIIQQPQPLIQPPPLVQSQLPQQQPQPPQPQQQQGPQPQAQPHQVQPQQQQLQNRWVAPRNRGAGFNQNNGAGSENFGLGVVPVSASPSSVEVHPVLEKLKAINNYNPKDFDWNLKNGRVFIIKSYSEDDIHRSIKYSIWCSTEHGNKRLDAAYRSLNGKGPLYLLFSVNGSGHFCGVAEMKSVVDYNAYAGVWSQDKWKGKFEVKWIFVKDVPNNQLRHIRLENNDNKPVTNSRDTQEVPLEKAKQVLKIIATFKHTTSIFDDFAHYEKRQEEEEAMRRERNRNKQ
UniProt P07947, whole entry, looked up: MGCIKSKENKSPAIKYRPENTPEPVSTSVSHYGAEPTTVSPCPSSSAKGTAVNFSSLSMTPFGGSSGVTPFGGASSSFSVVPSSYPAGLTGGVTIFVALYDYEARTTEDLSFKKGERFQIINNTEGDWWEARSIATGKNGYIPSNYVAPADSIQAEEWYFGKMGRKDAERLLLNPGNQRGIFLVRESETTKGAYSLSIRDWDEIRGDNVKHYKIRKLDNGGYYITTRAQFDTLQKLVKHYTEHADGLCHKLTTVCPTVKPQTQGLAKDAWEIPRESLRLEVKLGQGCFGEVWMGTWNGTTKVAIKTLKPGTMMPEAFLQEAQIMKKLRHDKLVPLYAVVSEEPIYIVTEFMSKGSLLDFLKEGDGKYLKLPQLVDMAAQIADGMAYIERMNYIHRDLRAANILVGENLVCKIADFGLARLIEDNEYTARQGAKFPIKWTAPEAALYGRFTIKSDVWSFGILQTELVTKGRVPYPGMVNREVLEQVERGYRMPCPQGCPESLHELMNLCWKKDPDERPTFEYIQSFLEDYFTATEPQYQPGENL
UniProt O00308: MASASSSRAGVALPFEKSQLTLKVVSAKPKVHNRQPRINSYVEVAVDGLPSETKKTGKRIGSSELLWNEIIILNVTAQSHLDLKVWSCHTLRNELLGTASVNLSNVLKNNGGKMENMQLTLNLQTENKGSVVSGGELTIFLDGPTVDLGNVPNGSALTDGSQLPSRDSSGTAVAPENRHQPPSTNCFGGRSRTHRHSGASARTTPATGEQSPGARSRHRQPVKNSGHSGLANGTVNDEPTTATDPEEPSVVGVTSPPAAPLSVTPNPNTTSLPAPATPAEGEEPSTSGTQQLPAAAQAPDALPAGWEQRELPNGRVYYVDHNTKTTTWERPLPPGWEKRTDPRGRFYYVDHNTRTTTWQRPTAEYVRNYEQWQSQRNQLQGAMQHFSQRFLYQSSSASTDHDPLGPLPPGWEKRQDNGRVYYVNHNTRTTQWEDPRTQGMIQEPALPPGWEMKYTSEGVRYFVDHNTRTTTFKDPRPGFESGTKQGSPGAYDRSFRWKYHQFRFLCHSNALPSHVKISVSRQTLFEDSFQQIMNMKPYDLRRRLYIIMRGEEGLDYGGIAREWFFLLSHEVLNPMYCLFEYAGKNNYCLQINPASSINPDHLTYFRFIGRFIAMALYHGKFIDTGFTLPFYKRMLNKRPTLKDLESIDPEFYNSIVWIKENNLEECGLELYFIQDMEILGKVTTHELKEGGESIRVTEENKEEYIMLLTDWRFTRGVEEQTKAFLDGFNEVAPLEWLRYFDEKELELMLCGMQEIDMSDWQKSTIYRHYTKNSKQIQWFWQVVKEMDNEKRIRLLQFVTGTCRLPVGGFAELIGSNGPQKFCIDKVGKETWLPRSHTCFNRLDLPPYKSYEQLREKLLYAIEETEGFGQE

compound: COc1ccc(Cn2ccc3ccc(C(=O)NO)cc32)cc1; experiment: dose-dependent thermal stabilisation call (2D-TPP, DLPTP, 10% FDR) (binary (1 = stabilised)); higher = stabilised by the compound; conditions: system: HL-60 intact cells; concentration range 0.04-10 µM

Target	dose-dependent thermal stabilisation call
VPS18 (UniProt Q9P253)	inactive: 0
WEE1 (UniProt P30291)	inactive: 0
ZC3H10 (UniProt Q96K80)	inactive: 0
ZMYM2 (UniProt Q9UBW7)	inactive: 0
ZMYM4 (UniProt Q5VZL5)	inactive: 0
ZDHHC6 (UniProt Q9H6R6)	inactive: 0
VARS (UniProt P26640)	inactive: 0
ZBTB2 (UniProt Q8N680)	inactive: 0
ZFP161 (UniProt O43829)	inactive: 0
ZNF277 (UniProt Q9NRM2)	inactive: 0
ZBTB9 (UniProt Q96C00)	inactive: 0
XRN2 (UniProt Q9H0D6)	inactive: 0
ZHX2 (UniProt Q9Y6X8)	inactive: 0
VPS53 (UniProt Q5VIR6)	inactive: 0
ZBTB7A (UniProt O95365)	inactive: 0
YIPF6 (UniProt Q96EC8)	inactive: 0
VISA (UniProt Q7Z434)	inactive: 0
ZDHHC5 (UniProt Q9C0B5)	inactive: 0
ZCCHC4 (UniProt Q9H5U6)	inactive: 0

2 consecutive entries out of the list so far:
Target	dose-dependent thermal stabilisation call
VARS (UniProt P26640)	inactive: 0
ZBTB2 (UniProt Q8N680)	inactive: 0

(list continues)

Target	dose-dependent thermal stabilisation call
WDR8 (UniProt Q9P2S5)	inactive: 0
WRN (UniProt Q14191)	inactive: 0
YTHDF3 (UniProt Q7Z739)	inactive: 0
ZC3H18 (UniProt Q86VM9)	inactive: 0
ZDHHC17 (UniProt Q8IUH5)	inactive: 0
VRK1 (UniProt Q99986)	inactive: 0
WAS (UniProt P42768)	inactive: 0
WBP11 (UniProt Q9Y2W2)	inactive: 0
YES1 (UniProt P07947)	inactive: 0
WWOX (UniProt Q9NZC7)	inactive: 0
WDR61 (UniProt Q9GZS3)	inactive: 0
WBSCR16 (UniProt Q96I51)	inactive: 0
WWP2 (UniProt O00308)	inactive: 0
ZADH2 (UniProt Q8N4Q0)	inactive: 0
WDR68 (UniProt P61962)	inactive: 0
ZNF24 (UniProt P17028)	inactive: 0
VTA1 (UniProt Q9NP79)	inactive: 0
VPS13D (UniProt Q5THJ4)	inactive: 0
